The exact form of at least one protein or probe is not confirmed. Where cells or extracts were used, other partners may take part. For some assays here: Tags and fusion partners may be left off the protein sequences shown.
Experiments:
Test in all cases: EMSA supershift
[1] = test system: C/EBPγ (endogenous) + C/EBPβ isoform LIP (endogenous); conditions: γ:LIP heterodimer, increased by IL-1β; 25 µl with 6 µl nuclear extract in buffer C (420 mM NaCl, 20 mM HEPES pH 7.9, 25% glycerol), 5x binding buffer (20% Ficoll, 50 mM HEPES pH 7.9, 5 mM EDTA, 5 mM DTT); protein in an extract; label: 32P
[2] = molecular target: T1, C/EBPγ (endogenous) (mouse (MLE12 cells)) (UniProt P53568); conditions: γ:γ homodimer, with and without IL-1β, increased by IL-1β; 25 µl with 6 µl nuclear extract in buffer C (420 mM NaCl, 20 mM HEPES pH 7.9, 25% glycerol), 5x binding buffer (20% Ficoll, 50 mM HEPES pH 7.9, 5 mM EDTA, 5 mM DTT); protein in an extract; label: 32P
T1 sequence (looked up, limits assumed): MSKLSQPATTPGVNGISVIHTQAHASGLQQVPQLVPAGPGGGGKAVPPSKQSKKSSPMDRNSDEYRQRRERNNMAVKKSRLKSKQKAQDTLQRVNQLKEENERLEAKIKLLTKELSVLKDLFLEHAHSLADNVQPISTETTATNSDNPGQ

Sequences of proteins named here, by UniProt entry; tags and fusion partners are left off. A change or cut given only in a name is not applied to a line headed by its entry.
UniProt P28033: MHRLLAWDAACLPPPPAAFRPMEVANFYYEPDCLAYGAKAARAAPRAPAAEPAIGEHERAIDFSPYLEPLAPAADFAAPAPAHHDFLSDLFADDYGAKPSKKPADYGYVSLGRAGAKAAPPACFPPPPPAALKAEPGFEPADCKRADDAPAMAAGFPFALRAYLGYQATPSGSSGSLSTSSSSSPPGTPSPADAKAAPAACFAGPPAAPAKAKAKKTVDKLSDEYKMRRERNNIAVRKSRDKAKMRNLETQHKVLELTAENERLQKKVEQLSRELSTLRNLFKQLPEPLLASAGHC

[3] = molecular target: C/EBPβ (endogenous) (mouse (MLE12 cells)) (UniProt P28033); conditions: with and without IL-1β; 25 µl with 6 µl nuclear extract in buffer C (420 mM NaCl, 20 mM HEPES pH 7.9, 25% glycerol), 5x binding buffer (20% Ficoll, 50 mM HEPES pH 7.9, 5 mM EDTA, 5 mM DTT); protein in an extract; label: 32P
[4] = molecular target: T2, C/EBPγ (adenovirally overexpressed) (mouse) (UniProt P53568); conditions: Adeno-C/EBPγ-infected MLE12 nuclear extract; 25 µl with 6 µl nuclear extract in buffer C (420 mM NaCl, 20 mM HEPES pH 7.9, 25% glycerol), 5x binding buffer (20% Ficoll, 50 mM HEPES pH 7.9, 5 mM EDTA, 5 mM DTT); protein in an extract; residues 1-150; label: 32P
T2 sequence (looked up): T1 sequence (looked up, limits assumed)

[5] = test system: C/EBPγ (endogenous) + C/EBPβ isoform LAP (endogenous); conditions: γ:LAP heterodimer, increased by IL-1β; 25 µl with 6 µl nuclear extract in buffer C (420 mM NaCl, 20 mM HEPES pH 7.9, 25% glycerol), 5x binding buffer (20% Ficoll, 50 mM HEPES pH 7.9, 5 mM EDTA, 5 mM DTT); protein in an extract; label: 32P

Measured: binding result

CTAAACGACGTCACATTGTGCAATCTTAATAAGGTT / TGGAAACCTTATTAAGATTGCACAATGTGACGTCGT [murine IL-6 C/EBP site probe]
binds: [1] | [2] | [3] | [4] | [5]
